Results are given in words; binding and its absence hold for the method and conditions named. In cells and extracts the contact can be indirect. Some binding calls cover weakened binding; strength is not graded here. Where a sequence is shown, tags or fusion partners need not be part of it.
Molecular target: T1, FLAG-tagged full-length SUUR (Suppressor of Underreplication protein) (Drosophila melanogaster) (UniProt Q9VTE2)
T1 sequence: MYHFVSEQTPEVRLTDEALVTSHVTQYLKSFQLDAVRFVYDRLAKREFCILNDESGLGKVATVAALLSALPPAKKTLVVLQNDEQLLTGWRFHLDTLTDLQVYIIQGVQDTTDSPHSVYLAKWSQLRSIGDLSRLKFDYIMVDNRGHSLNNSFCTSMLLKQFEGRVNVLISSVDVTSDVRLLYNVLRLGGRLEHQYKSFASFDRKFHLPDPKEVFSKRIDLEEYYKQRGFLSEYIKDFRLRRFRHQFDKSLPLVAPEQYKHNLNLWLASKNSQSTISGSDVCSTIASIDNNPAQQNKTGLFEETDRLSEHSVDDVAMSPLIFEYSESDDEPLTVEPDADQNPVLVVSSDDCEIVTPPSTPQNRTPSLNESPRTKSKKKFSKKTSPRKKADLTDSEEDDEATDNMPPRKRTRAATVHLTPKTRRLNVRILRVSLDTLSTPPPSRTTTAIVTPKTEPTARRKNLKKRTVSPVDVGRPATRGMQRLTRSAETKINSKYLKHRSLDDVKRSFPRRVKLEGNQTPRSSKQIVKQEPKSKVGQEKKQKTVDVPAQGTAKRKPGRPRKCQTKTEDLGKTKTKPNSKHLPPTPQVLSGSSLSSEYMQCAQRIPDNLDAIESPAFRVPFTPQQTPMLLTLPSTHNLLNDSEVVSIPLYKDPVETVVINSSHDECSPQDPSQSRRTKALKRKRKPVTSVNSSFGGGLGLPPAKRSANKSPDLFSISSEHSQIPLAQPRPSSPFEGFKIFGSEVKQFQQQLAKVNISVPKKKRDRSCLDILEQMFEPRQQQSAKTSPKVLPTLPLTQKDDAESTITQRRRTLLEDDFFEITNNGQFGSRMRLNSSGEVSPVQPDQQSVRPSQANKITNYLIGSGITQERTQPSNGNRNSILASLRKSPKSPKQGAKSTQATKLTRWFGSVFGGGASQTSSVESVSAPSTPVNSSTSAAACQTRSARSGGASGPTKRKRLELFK
Assay: co-IP; FLAG-SUUR immunoprecipitated from 0 to 24 hr embryos extracted with NP40 lysis buffer with or without Benzonase treatment; blots with anti-Rif1 and anti-FLAG; wild-type as no-FLAG control

binding: binds
B1: Rif1 (Rap1-interacting factor 1) (protein, UniProt Q9XZ34 1-1416)
chain: MDVDFGAQAGQSYRTVQLSAKEVLAAGRRQHYCNMIDLLASSCKSSGLIATSFTDDELVEFWLGDILPLMFDADRKIQDCAVAALAEALVALDVSVIHSAKCWPQIRSEFVDKYTIIIGEMRDAKNSNWHKIWTLLVQIMDEDLLRGCVYINKFLALVELGFRNPDNGVRSEAFLCWRVLIKIFAAYDELTSAKRLRLLLIPLRTSQSRSSHVSGIKLRVWWYLLSCLDHELPKSFDSAVEHFLAFMLGGGPRNLATGLAHNYQTARELALPCLVALWGVESSEPLQRLMRELRLETLVQPSPLMSVEVFQQHWKPLLAAAVSGLKLLTENDATEAEQLLLQLLVRNLCLAMFRLAVAPFNVACCSEIEKILQAEDNSGGRVVRALFNTIAADNLVMERVSGSDHLDVLEAYLKLVLKSKTEVPAAILQRSIACIFAVDRIEANNQNEFRMLGSFAELLMQANDEEDFEGFAFKLQVWRQVSQALSNYLRNNALEYRVAHNASLLDTWLLWPLQTLAAFAGRRASNSFDASFCDQWRQLVNAGQNAPGRKKFLTDLKATLTDLLKSKDEPLFAELFDAYVTSLIKFGLCKEAPLYKDVFGLLQTIFEQPSSQKTLEACLNTLRNLVVELRQNELMVVFDSLKPTLSSGIQCWNKMKCEGGFLEEWKRGIQEKFRKLPMKTMANQLKELFKADDLFVIIPSVWSLNPEKLTDRQKERFAEKSDIPALYNDMSQSQDSASIKPWTPKKVVIAKSKQGELALTGKDDNGEVIDITASEESEKEPVRVDVVTPIRKKPGRKSQAQKELEAAARAASLAEEPPKRQTRTRAAQKETEQVAQPQPAFEPQLRSPKKLPPSPVVQSTAAAVKQAKVAKPTPVVVIAQSEDLFPEVAAEPEPQPEPVKKPDPVPETTQLTPPDVPLEAVPSTQLPGSSGDPAASAGAVAAGEMSPKKSGTRIYNLSSPPDRKQTNNSSSPTLRPKPTGHLTGRGAQLINMIRNKKLDAASGSPYACMSTSRLVHQVTPARAQDRAEQVSTPTSELNELTGTDHTSTPIQAPPSKDLLVFSKRLPSPSASPSVSILKRKLRCESLDDVTLDSPALKRKRVSFHDPPVSVTKEYLRDAEETRSSLKPKRCLLMDKVAQTTEMRQALRRRGRLDSIIEIERFASEQTARTATTDKSLDKSTGEAPEEDAFTSLKWNDTGNAHNISISEEPVKAMEVESELETAGQDLAIMDPEAALDLAVAQLPLESVLQRYFDKSPLKSAGMLAKFLSAQMTANEKLKTNVLETLSENHSKDFLDHAVRENLSSVVCDRLNPTSVLEYVCAKSKISASCRNGLLAQVPEILKSGPRSDSERLAFVQQLMVQCSPGDDLLLDLIDLLMRTRRERNNSTSTHISKGVVSAVGSPDNVAETAADSSSNL

— paper PMC6185109
